± gives the uncertainty stated by the source. Many of these values have a large error.
Assay: self-splicing fitness, log relative to wild type (ln ratio); higher = more splicing; Tetrahymena group I intron in knt gene, E. coli kanamycin selection, DiMSum; sequences stand for … in CUCUCU…GGAGGGAAAAGUUAUCAGGCAUGCACCUGGUAGCUAGUCUUUAAACCAAUAGAUUGCAUCGGUUUAAAAGGCAAGACCGUCAAAUUGCGGGAAAGGGGUCAACAGCCGUUCAGUACCAAGUCUCAGGGGAAACUUUGAGAUGGCCUUGCAAAGGGUAUGGUAAUAAGCUGACGGACAUGGUCCUAACCACGCAGCCAAGUCCUAAGUCAACAGAUCUUCUGUUGAUAUGGAUGCAGUUCACAGACUAAAUGUCGGUCGGGGAAGAUGUAUUCUUCUCAUAAGAUAUAGUCGGACCUCUCCUUAAUGGGAGCUAGCGGAUGAAGUGAUGCAACACUGGAGCCGCUGGGAACUAAUUUGUAUGCGAAAGUAUAUUGAUUAGUUUUGGAGUACUCGUGGUCG
Method in brief: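 Fitness was computed with DiMSum as the error-weighted combination of replicate fold changes, kanamycin versus none, each normalised to wild type. The library randomised all eight intron nucleotides of the P1ex region, with the intron placed in the knt kanamycin-resistance gene on pET-22b(+) in E. coli BL21(DE3). Six replicate transformations were grown overnight at 37°C or 30°C on LB agar with or without 25 μg/mL kanamycin, plus 100 μg/mL carbenicillin, 50 μM IPTG and 0.2% rhamnose. Pooled colonies were amplicon-sequenced on an Illumina HiSeq 2500.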

Sequence | self-splicing fitness (ln) (30 °C) | self-splicing fitness (ln) (37 °C)
UGAGAGCAAUAUUACGAGAC | -4.44 ± 0.46 | -2.59 ± 0.29
CUCGAGCAAUAUUACGGCUA | -2.7 ± 0.51 | –
AGGGAGCAAUAUUACGCGGG | – | -3.37 ± 0.6
UCACAGCAAUAUUACGCAUU | – | -3.66 ± 0.51
GGAGAGCAAUAUUACGGAGA | – | -2.09 ± 0.51
UUUAAGCAAUAUUACGCUAC | – | -3.41 ± 0.53
UGAGAGCAAUAUUACGCAGA | -3.1 ± 0.34 | -2.54 ± 0.63
UGAUAGCAAUAUUACGAUAC | -3.77 ± 0.52 | -2.58 ± 0.54
CUCUAGCAAUAUUACGACAC | -3.7 ± 1.1 | –
GUUUAGCAAUAUUACGCUAU | -2.2 ± 0.51 | –
GAGAAGCAAUAUUACGAAGG | – | -3.57 ± 1
CAGAAGCAAUAUUACGAUCU | -1.88 ± 0.12 | -0.995 ± 0.1
UUCUAGCAAUAUUACGAAAC | – | -1.64 ± 0.67
CAUAAGCAAUAUUACGUCUA | -2.41 ± 0.14 | -1.4 ± 0.11
UGUGAGCAAUAUUACGCUCC | – | -0.466 ± 0.78
CCUUAGCAAUAUUACGACCA | – | -2.35 ± 0.77
CCGGAGCAAUAUUACGUAUC | -4.48 ± 0.59 | –
GAACAGCAAUAUUACGACGA | -0.494 ± 0.085 | 0.265 ± 0.097
AGCCAGCAAUAUUACGUUUC | – | -3.13 ± 0.52
CGGCAGCAAUAUUACGAUCG | -2.76 ± 0.18 | -1.97 ± 0.19
GGGCAGCAAUAUUACGCUAC | -4.39 ± 1 | 0.279 ± 0.5
CCGGAGCAAUAUUACGCCCU | -3.8 ± 0.53 | –
UAGUAGCAAUAUUACGAGAC | -5.83 ± 1 | –
UUAAAGCAAUAUUACGGCUA | 0.185 ± 0.091 | 0.424 ± 0.12

Sequence | self-splicing fitness (ln) (30 °C) | self-splicing fitness (ln) (37 °C)
CUGUAGCAAUAUUACGUAAU | -3.88 ± 0.3 | -3.29 ± 0.37
GCUAAGCAAUAUUACGCAAG | -3.64 ± 0.74 | –
ACCGAGCAAUAUUACGAACC | – | -2.79 ± 1.1
CGGGAGCAAUAUUACGCCCU | -3.3 ± 0.55 | -1.47 ± 1.2
UUCUAGCAAUAUUACGCUGG | -4.38 ± 0.46 | -3.66 ± 0.73
UAGGAGCAAUAUUACGCUAA | -2.42 ± 0.67 | –
CGGUAGCAAUAUUACGCUCC | – | -2.33 ± 0.55
GUGCAGCAAUAUUACGACGG | -5.12 ± 1 | –
GAGUAGCAAUAUUACGAUCU | -1.59 ± 0.18 | -0.479 ± 0.16
CAUUAGCAAUAUUACGGUAU | -4.47 ± 0.72 | –
GGCUAGCAAUAUUACGCCCA | -0.828 ± 0.82 | 1.85 ± 0.53
GAUAAGCAAUAUUACGAACU | -0.896 ± 0.079 | -0.073 ± 0.11
UAGGAGCAAUAUUACGGUGC | -4.32 ± 0.52 | 0.0781 ± 0.55
UCGGAGCAAUAUUACGGGAC | -1.32 ± 1.4 | –
GGGGAGCAAUAUUACGCGGU | – | -1.92 ± 0.52
AUGCAGCAAUAUUACGUGAA | -2.44 ± 0.12 | -0.683 ± 0.13
UAGUAGCAAUAUUACGAAGG | -0.962 ± 0.83 | –
UUUGAGCAAUAUUACGCACA | -2.5 ± 0.58 | 0.0946 ± 0.83
AGCAAGCAAUAUUACGUCUC | – | -2.57 ± 0.66
GUAGAGCAAUAUUACGACCA | – | -0.76 ± 0.55
AUCUAGCAAUAUUACGAAGC | – | -1.93 ± 0.81
CGACAGCAAUAUUACGUACU | -1.26 ± 0.082 | -0.578 ± 0.089
ACGUAGCAAUAUUACGAGAC | – | -2.18 ± 1.1
ACCAAGCAAUAUUACGCCGG | -2.33 ± 0.13 | -0.125 ± 0.13

Sequence | self-splicing fitness (ln) (30 °C) | self-splicing fitness (ln) (37 °C)
CAGGAGCAAUAUUACGUCUG | – | -3.26 ± 0.6
UGUGAGCAAUAUUACGACAC | -2.42 ± 1.2 | -2.03 ± 0.81
GAUGAGCAAUAUUACGGGAU | -3.89 ± 1 | –
CUAUAGCAAUAUUACGAAAA | -4.1 ± 0.73 | –
GUCCAGCAAUAUUACGAACC | -1.97 ± 0.093 | -0.224 ± 0.11
UGGUAGCAAUAUUACGAAAC | -4.02 ± 0.42 | -2.42 ± 0.45
AGUGAGCAAUAUUACGCAUU | -2.55 ± 0.21 | -1.4 ± 0.19
ACGGAGCAAUAUUACGAAUC | -3.65 ± 0.55 | -2.64 ± 0.53
CUGAAGCAAUAUUACGGAGC | -3.95 ± 0.52 | –
UCGGAGCAAUAUUACGGACU | -4.29 ± 1 | -1.98 ± 1.1
UGGUAGCAAUAUUACGGCUG | -1.99 ± 0.15 | -0.886 ± 0.26
GUCUAGCAAUAUUACGUCCC | 0.0985 ± 0.14 | -0.0539 ± 0.14
UCUGAGCAAUAUUACGCUCC | – | -2.13 ± 0.58
CUUGAGCAAUAUUACGGUAA | -3.57 ± 0.73 | –
CAGAAGCAAUAUUACGGUCC | – | -3.96 ± 0.51
CAACAGCAAUAUUACGUAGC | -4.19 ± 0.12 | -2.49 ± 0.12
AAAGAGCAAUAUUACGGCAC | -2.72 ± 0.19 | -2.01 ± 0.21
UCUAAGCAAUAUUACGGCCC | -1.71 ± 0.69 | -0.595 ± 0.71
CUAUAGCAAUAUUACGCGCC | – | -0.96 ± 0.68
GACGAGCAAUAUUACGUCGC | -3.25 ± 0.47 | -0.634 ± 0.35
UCUGAGCAAUAUUACGCAAC | -3.16 ± 0.64 | –
UGAGAGCAAUAUUACGAUAU | -2.85 ± 0.62 | -2.8 ± 0.44
AAUGAGCAAUAUUACGAGCC | – | -1.81 ± 0.52
ACAGAGCAAUAUUACGAAAA | -2.27 ± 0.51 | –

Sequence | self-splicing fitness (ln) (30 °C) | self-splicing fitness (ln) (37 °C)
UCUGAGCAAUAUUACGCCUA | -3.15 ± 0.63 | –
CAAGAGCAAUAUUACGAAAA | -2.13 ± 0.65 | –
CCAAAGCAAUAUUACGGCGG | -3.8 ± 0.15 | -2.48 ± 0.16
UUUAAGCAAUAUUACGGUAG | -0.741 ± 0.17 | -0.971 ± 0.21
GUGUAGCAAUAUUACGUAUC | – | -1.52 ± 0.51
AUCGAGCAAUAUUACGAUCA | -2.01 ± 0.54 | –
CUGAAGCAAUAUUACGCCAC | – | -2.17 ± 0.55
UGAUAGCAAUAUUACGACAA | -2.42 ± 0.81 | –
GGAGAGCAAUAUUACGAUCC | – | -2.64 ± 1.1
GGAGAGCAAUAUUACGUUAA | -2.31 ± 0.51 | -2.64 ± 1.1
UCGAAGCAAUAUUACGUAGC | -3.84 ± 0.51 | –
ACCGAGCAAUAUUACGCGAC | -3.52 ± 0.6 | –
CGUCAGCAAUAUUACGCAGG | -3.85 ± 0.3 | -1.69 ± 0.18
CGCUAGCAAUAUUACGUCUU | -4.88 ± 0.51 | –
AUAGAGCAAUAUUACGAGGC | -2.44 ± 1.1 | -1.74 ± 0.7
UUGGAGCAAUAUUACGCAUU | – | -2.83 ± 0.61
GCGGAGCAAUAUUACGUGCC | -3.53 ± 0.54 | -1.39 ± 1.2
GUUAAGCAAUAUUACGGAAC | -4.03 ± 1 | -1.43 ± 0.34
CUGAAGCAAUAUUACGUGCC | -3.5 ± 0.52 | –
UUGAAGCAAUAUUACGUAAC | – | -2.35 ± 0.67
AGACAGCAAUAUUACGAAGC | -4.09 ± 1 | –
GGAUAGCAAUAUUACGGCAC | -1.16 ± 0.14 | -0.0176 ± 0.17
GUCUAGCAAUAUUACGAAAG | -4.11 ± 0.6 | –
AAAUAGCAAUAUUACGAUAA | -1.51 ± 0.12 | -0.658 ± 0.13

Single records (already shown). Order of values: self-splicing fitness (ln) (30 °C)	self-splicing fitness (ln) (37 °C)
AAAUAGCAAUAUUACGAUAA is entered as -1.51 ± 0.12	-0.658 ± 0.13
GGAGAGCAAUAUUACGAUCC is entered as –	-2.64 ± 1.1
UUGGAGCAAUAUUACGCAUU is entered as –	-2.83 ± 0.61
AUAGAGCAAUAUUACGAGGC is entered as -2.44 ± 1.1	-1.74 ± 0.7

(list continues)

Sequence | self-splicing fitness (ln) (30 °C) | self-splicing fitness (ln) (37 °C)
GAAGAGCAAUAUUACGAAUA | -3.78 ± 0.59 | –
UGUGAGCAAUAUUACGAUGC | -3.82 ± 0.77 | –
GGCUAGCAAUAUUACGCCAC | – | -0.00393 ± 0.58
CAUGAGCAAUAUUACGAACA | -3.38 ± 0.54 | –
CCGCAGCAAUAUUACGGGAU | -4.16 ± 0.33 | -1.82 ± 0.16
GGGGAGCAAUAUUACGGCGA | -2.4 ± 0.26 | -1.81 ± 0.24
CUAAAGCAAUAUUACGAAGC | -4.76 ± 0.59 | –
ACCUAGCAAUAUUACGCCCC | -0.432 ± 0.75 | –
UCGGAGCAAUAUUACGGGAG | -4.05 ± 0.6 | –
UUGGAGCAAUAUUACGAAUA | -2.94 ± 1.1 | -2.1 ± 0.46
CUGAAGCAAUAUUACGUCAA | -1.2 ± 0.065 | -0.435 ± 0.084
UCUUAGCAAUAUUACGUGCC | -2.02 ± 0.9 | –
ACGGAGCAAUAUUACGCCCC | -0.86 ± 1.4 | –
AUUAAGCAAUAUUACGACCC | – | 0.725 ± 0.57
CCACAGCAAUAUUACGGAAU | -3.23 ± 0.17 | -2.21 ± 0.18
CGGGAGCAAUAUUACGAGCC | – | -2.39 ± 1.1
CGUGAGCAAUAUUACGACUC | -2.52 ± 0.59 | -2.47 ± 0.54
ACAUAGCAAUAUUACGGUUC | -2.93 ± 0.17 | -2.51 ± 0.24
UAGGAGCAAUAUUACGUAUA | -2.34 ± 0.21 | -0.936 ± 0.17
UUCCAGCAAUAUUACGAAGU | -4.22 ± 0.59 | –
UUUUAGCAAUAUUACGUUGA | -3.16 ± 0.76 | –
AAUGAGCAAUAUUACGUCCC | -1.69 ± 0.52 | -1.69 ± 1.2

Source: the supplement of paper PMC7877785
